From publication doi:10.1101/2020.10.29.360719
No constants are given. Whether binding was seen depends on the method and setting.

Chains of the proteins cited; added tags and fusions are not shown. Residues count along the entry.
ORF1_(1-53) (disordered N-terminal region of ORF1) (Q9UN81, residues 1-53): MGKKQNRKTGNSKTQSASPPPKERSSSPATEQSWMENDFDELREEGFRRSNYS
ORF1_(53-131) (Q9UN81, residues 53-131): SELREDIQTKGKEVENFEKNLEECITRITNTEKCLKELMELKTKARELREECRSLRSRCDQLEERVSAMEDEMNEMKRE

Target: ORF1_(1-53) (disordered N-terminal region of ORF1) (human) (UniProt Q9UN81)
Test: NMR titration

## ORF1_(53-131) (from UniProt Q9UN81 53-131) (domain or fragment)
  binding: no binding
